Earlier results, collected in publication PMC7821884, “BRAF inhibition protects against hearing loss in mice” (Science Advances, 2020).

Tested on: P3-P4 FVB mouse cochlear explants
Set-up: method as in PMID 29514916, PMID 9303151
Details: identical P3 FVB explant model; read-out: IC50, protection from cisplatin in explants; cited from earlier work

For `O=S([O-])([O-])=S.[Na+].[Na+]` [STS, sodium thiosulfate], the IC50 is given as 2100 nM.
